PubChem BioAssay AID1259308, NCATS | 2017

Test: 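Knock-downs that increase output of a recombinant reporter protein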 (primary screen)
System: human HEK293 embryonic kidney cells stably expressing firefly luciferase (HEK-CMV-Luc2-Hygro)
Reagent: single siRNA against human genes, 0.8 pmol siRNA per well
Timing: 72 h
Measurement: 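Reporter luminescence and viable-cell signal on separate replicate plates, given as percent of non-targeting control and median/MAD z-scores, plus per-cell luciferase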
Scale: total luciferase, z-score: higher = more reporter protein produced
Rule for the call: 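Active when the median/MAD z-score for overall luciferase is greater than 3; a gene was taken forward for validation with new siRNAs if at least two of its three siRNAs passed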
Meaning of the calls: active = raised luciferase; inactive = no rise
The whole screen tested about 59,000 reagents; shown is a random part of them. Of all reagents, about 1,510 (2.6%) are marked active. 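Calls use total luciferase alone and ignore viability, so some active siRNAs may act by altering cell number.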 The numbers tell different reagents against one gene apart. Further read-outs or replicates are left out here.

gene symbol,siRNA no.,"total luciferase, z-score",call
CFAP251 (GeneID 144406),1,-2.71,inactive
CFAP251 (GeneID 144406),2,-1.04,inactive
CFAP251 (GeneID 144406),3,-1.28,inactive
SIRT5 (GeneID 23408),1,1.12,inactive
SIRT5 (GeneID 23408),2,-0.353,inactive
SIRT5 (GeneID 23408),3,-0.0983,inactive
IL17RC (GeneID 84818),1,1.85,inactive
IL17RC (GeneID 84818),2,1.46,inactive
IL17RC (GeneID 84818),3,-0.446,inactive
IGFBP2 (GeneID 3485),1,-0.0118,inactive
IGFBP2 (GeneID 3485),2,0.382,inactive
IGFBP2 (GeneID 3485),3,0.08,inactive
ATF4P3 (GeneID 643159),1,0.45,inactive
ATF4P3 (GeneID 643159),2,-0.297,inactive
ATF4P3 (GeneID 643159),3,-0.927,inactive
REXO5 (GeneID 81691),1,3.35,active
REXO5 (GeneID 81691),2,-0.215,inactive
REXO5 (GeneID 81691),3,0.131,inactive
DPY19L4 (GeneID 286148),1,1.36,inactive
DPY19L4 (GeneID 286148),2,-1.01,inactive
DPY19L4 (GeneID 286148),3,0.913,inactive
PROSER1 (GeneID 80209),1,1.2,inactive
PROSER1 (GeneID 80209),2,4.1,active
PROSER1 (GeneID 80209),3,0.931,inactive
TMEM150B (GeneID 284417),1,1.51,inactive
TMEM150B (GeneID 284417),2,-0.496,inactive
TMEM150B (GeneID 284417),3,-0.596,inactive
TTC39B (GeneID 158219),1,-1.59,inactive
TTC39B (GeneID 158219),2,-1.35,inactive
TTC39B (GeneID 158219),3,0.944,inactive

The list goes on (4 carried over from the part before).
gene symbol,siRNA no.,"total luciferase, z-score",call
TMEM150B (GeneID 284417),3,-0.596,inactive
TTC39B (GeneID 158219),1,-1.59,inactive
TTC39B (GeneID 158219),2,-1.35,inactive
TTC39B (GeneID 158219),3,0.944,inactive
TMEM132E (GeneID 124842),1,0.0366,inactive
TMEM132E (GeneID 124842),2,0.093,inactive
TMEM132E (GeneID 124842),3,0.185,inactive
TUBE1 (GeneID 51175),1,-0.466,inactive
TUBE1 (GeneID 51175),2,-1.06,inactive
TUBE1 (GeneID 51175),3,-0.41,inactive
ADAMTS9 (GeneID 56999),1,0.343,inactive
ADAMTS9 (GeneID 56999),2,-0.19,inactive
ADAMTS9 (GeneID 56999),3,-0.776,inactive
OR6N1 (GeneID 128372),1,-0.386,inactive
OR6N1 (GeneID 128372),2,3.25,active
OR6N1 (GeneID 128372),3,1.68,inactive
CTRB1 (GeneID 1504),1,0.172,inactive
CTRB1 (GeneID 1504),2,3.33,active
CTRB1 (GeneID 1504),3,0.95,inactive
PLK2 (GeneID 10769),1,-0.264,inactive
PLK2 (GeneID 10769),2,-0.138,inactive
PLK2 (GeneID 10769),3,1.4,inactive
TUBA1C (GeneID 84790),1,0.824,inactive
TUBA1C (GeneID 84790),2,-0.024,inactive
TUBA1C (GeneID 84790),3,0.636,inactive
ZNF891 (GeneID 101060200),1,0.142,inactive
ZNF891 (GeneID 101060200),2,-1.39,inactive
ZNF891 (GeneID 101060200),3,0.235,inactive
SLCO1C1 (GeneID 53919),1,-2.33,inactive
SLCO1C1 (GeneID 53919),2,-0.361,inactive
SLCO1C1 (GeneID 53919),3,1.46,inactive
